# The list shows a part of the results. Most values lie at the level of the controls, where differences are scatter.
# Amino acid sequences for entries named in this document (tags omitted). A change or cut given only in a name is not applied to a line headed by its entry.
# UniProt Q92917: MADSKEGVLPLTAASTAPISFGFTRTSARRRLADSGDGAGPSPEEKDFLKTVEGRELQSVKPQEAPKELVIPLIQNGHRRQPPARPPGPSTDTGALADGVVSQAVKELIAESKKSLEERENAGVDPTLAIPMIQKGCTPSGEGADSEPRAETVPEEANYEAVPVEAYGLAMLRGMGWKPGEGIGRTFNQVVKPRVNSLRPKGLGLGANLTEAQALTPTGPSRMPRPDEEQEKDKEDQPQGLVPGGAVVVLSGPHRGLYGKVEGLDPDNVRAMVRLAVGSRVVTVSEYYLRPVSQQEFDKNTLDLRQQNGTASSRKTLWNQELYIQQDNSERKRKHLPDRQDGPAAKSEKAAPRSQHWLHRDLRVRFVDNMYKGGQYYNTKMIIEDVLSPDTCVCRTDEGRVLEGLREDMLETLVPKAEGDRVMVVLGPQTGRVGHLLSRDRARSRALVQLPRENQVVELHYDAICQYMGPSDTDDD
# UniProt Q96EK9: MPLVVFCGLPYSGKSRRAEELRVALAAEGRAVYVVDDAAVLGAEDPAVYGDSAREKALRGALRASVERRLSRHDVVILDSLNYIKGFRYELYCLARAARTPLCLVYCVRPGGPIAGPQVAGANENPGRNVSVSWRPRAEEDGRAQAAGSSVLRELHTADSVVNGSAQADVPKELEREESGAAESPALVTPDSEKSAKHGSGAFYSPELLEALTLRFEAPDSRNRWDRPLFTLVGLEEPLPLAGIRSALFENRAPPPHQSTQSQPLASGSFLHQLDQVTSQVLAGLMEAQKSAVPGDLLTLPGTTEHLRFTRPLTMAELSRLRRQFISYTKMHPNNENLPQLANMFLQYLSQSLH
# UniProt Q96GG9: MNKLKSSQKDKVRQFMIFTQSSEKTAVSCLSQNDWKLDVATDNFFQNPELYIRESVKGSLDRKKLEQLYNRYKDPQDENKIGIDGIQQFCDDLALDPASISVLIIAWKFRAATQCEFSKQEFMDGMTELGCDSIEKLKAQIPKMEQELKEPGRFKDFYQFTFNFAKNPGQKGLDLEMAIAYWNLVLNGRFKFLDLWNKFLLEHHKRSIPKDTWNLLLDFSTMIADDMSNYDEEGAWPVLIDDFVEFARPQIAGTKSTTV
# UniProt Q96BD8: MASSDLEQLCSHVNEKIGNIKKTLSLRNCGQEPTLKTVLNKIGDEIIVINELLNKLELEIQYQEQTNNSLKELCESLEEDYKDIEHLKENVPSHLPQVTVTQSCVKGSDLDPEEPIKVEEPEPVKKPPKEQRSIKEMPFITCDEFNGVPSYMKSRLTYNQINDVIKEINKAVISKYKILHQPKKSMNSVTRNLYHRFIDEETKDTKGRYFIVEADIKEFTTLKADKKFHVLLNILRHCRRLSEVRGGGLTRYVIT
# UniProt Q96A57: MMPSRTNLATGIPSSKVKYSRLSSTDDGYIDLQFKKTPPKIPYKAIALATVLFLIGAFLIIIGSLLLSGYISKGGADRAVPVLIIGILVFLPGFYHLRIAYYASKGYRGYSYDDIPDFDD
# UniProt Q96AH0: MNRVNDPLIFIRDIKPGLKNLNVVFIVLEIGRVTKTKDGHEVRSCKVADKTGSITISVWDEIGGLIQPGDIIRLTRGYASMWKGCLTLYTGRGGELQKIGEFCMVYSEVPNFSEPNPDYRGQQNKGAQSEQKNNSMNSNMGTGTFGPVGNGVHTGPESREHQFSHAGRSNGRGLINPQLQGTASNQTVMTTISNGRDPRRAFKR
# UniProt Q96CT7: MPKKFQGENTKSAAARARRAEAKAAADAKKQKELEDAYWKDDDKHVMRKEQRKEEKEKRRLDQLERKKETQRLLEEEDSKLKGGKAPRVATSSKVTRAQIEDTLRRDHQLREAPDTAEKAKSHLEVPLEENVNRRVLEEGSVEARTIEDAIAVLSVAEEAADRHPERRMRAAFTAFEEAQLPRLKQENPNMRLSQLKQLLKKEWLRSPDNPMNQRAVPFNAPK
# UniProt Q92835: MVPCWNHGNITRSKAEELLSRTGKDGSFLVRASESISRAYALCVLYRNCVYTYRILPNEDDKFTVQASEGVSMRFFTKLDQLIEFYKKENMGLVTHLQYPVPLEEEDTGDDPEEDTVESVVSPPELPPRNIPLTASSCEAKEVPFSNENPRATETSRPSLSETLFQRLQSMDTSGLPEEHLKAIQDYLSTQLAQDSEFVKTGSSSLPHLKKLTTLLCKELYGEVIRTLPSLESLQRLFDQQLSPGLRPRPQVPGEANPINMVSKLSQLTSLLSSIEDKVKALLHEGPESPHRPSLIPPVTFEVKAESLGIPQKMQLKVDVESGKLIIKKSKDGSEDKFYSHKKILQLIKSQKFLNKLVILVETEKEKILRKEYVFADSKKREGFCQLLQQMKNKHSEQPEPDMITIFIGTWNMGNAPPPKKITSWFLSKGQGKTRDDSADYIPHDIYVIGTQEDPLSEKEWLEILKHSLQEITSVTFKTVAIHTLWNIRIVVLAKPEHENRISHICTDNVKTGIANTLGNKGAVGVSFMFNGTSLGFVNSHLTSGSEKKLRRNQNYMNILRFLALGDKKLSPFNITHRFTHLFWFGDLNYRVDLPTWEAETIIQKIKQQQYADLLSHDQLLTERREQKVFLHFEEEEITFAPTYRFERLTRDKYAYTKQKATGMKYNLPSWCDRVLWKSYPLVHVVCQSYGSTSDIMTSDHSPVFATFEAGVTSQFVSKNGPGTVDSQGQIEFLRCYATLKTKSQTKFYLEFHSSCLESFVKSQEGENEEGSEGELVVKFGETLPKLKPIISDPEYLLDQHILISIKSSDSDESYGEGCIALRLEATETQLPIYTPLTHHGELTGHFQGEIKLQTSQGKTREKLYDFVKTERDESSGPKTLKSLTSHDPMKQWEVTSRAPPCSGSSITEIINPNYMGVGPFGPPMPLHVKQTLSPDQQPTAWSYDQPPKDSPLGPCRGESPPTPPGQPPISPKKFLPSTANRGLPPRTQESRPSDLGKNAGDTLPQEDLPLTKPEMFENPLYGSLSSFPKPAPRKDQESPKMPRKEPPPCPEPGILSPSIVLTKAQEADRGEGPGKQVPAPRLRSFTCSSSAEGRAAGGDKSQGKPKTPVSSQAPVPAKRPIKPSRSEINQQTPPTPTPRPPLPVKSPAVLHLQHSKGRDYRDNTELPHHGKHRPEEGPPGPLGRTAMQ
# UniProt Q96G04: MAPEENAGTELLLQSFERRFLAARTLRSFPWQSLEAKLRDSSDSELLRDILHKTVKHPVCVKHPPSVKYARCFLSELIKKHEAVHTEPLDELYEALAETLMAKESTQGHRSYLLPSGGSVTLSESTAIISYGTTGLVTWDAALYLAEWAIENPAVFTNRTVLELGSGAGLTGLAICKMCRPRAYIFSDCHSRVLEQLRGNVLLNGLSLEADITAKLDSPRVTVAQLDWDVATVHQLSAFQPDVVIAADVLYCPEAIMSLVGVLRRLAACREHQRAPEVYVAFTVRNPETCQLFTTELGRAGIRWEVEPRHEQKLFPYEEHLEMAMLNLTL
# UniProt Q93034, whole entry: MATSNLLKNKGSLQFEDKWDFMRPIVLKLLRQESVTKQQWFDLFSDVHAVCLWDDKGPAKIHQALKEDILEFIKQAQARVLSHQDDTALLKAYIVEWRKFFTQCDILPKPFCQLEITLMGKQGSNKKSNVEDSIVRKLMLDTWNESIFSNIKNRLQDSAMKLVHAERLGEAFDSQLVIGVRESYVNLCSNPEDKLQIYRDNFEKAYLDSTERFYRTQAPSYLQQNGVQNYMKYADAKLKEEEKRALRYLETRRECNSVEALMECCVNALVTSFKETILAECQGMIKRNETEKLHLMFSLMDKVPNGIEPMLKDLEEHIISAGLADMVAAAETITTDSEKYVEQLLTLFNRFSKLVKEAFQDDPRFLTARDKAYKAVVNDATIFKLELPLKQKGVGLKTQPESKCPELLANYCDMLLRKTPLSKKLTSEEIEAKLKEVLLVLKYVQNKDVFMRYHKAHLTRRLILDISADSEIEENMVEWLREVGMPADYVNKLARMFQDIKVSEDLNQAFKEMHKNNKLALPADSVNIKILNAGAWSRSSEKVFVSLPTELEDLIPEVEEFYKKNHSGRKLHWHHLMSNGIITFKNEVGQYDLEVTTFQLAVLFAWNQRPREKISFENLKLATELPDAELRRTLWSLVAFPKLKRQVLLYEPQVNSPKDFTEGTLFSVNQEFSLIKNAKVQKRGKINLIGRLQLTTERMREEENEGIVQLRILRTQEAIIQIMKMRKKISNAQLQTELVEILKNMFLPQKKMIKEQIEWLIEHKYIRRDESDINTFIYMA
# UniProt Q96FV0: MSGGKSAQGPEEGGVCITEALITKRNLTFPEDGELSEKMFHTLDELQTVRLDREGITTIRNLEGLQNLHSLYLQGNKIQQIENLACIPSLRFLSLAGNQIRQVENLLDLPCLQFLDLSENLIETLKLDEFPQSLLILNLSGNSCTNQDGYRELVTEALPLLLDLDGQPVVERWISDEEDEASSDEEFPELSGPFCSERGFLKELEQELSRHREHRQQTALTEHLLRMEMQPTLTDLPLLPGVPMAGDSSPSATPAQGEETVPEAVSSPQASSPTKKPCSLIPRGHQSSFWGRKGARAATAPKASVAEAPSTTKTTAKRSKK
# UniProt Q96CJ1: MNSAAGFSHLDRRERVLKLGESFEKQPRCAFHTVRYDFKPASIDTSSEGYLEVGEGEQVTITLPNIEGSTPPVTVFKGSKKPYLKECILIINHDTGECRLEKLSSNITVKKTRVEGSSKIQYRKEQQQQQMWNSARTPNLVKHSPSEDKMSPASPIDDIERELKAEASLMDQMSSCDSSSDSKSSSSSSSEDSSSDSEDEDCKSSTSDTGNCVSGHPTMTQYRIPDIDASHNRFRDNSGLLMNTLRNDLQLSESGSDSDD
# UniProt Q969X6: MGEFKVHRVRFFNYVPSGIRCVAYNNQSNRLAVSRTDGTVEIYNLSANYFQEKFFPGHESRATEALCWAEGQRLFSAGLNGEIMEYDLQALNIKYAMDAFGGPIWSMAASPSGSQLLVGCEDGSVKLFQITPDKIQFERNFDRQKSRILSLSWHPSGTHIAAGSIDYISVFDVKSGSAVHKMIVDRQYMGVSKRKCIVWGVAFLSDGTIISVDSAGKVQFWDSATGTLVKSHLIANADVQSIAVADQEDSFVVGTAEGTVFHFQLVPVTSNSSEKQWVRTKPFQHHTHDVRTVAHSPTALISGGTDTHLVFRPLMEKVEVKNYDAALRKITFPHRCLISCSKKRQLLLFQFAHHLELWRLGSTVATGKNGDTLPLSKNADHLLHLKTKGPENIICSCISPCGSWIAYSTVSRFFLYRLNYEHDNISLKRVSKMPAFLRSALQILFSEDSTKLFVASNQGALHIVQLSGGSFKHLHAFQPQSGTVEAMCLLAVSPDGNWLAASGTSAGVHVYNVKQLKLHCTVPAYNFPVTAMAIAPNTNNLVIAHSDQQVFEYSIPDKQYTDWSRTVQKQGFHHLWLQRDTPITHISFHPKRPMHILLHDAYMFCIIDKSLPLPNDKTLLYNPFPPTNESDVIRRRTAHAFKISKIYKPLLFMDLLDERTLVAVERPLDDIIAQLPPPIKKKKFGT
# UniProt Q96B23: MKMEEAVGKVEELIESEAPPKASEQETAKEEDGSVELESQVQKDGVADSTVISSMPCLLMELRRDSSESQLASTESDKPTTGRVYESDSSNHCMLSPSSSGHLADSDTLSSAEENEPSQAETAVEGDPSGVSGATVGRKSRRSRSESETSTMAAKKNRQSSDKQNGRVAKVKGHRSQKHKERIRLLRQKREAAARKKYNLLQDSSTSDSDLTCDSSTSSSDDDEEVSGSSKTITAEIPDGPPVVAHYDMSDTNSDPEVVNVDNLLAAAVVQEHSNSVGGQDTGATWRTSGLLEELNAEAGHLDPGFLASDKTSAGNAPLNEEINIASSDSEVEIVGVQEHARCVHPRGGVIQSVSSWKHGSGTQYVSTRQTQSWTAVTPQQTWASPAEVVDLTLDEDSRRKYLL
# UniProt Q96BR5: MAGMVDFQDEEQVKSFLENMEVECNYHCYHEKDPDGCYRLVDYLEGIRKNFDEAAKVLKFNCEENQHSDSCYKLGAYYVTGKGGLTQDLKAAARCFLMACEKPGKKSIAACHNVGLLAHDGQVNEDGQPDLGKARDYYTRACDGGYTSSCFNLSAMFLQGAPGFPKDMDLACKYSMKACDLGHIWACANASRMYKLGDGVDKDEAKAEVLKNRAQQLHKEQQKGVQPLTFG
# UniProt Q96AB3: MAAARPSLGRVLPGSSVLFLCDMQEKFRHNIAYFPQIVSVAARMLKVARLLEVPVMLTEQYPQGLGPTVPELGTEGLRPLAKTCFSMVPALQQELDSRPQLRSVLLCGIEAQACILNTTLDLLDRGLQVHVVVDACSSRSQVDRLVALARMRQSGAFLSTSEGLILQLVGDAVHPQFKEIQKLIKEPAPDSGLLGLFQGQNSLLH
# Compound: CN[C@@H]1C[C@H]2O[C@@](C)([C@@H]1OC)n1c3ccccc3c3c4c(c5c6ccccc6n2c5c31)C(=O)NC4 [staurosporine]
# Experiment: log2 fold change of tryptic peptide abundance, ligand vs vehicle (limited proteolysis) (log2 ratio); higher = more trypsin-susceptible (destabilized)
# Conditions: ligand concentration: 20 uM; sample: K562 cleared lysate; digestion: 4 min, 22 C (HT-PELSA RT4min, Orbitrap Astral)
row,Target,log2 fold change
1,"GPKOW (peptide sequence: ELQSVKPQEAPK, peptide start residue: 56) (UniProt Q92917)",-0.0933
2,"MOCOS (peptide sequence: CQMICIDQQTGQR, peptide start residue: 811) (UniProt Q96EN8)",1.07
3,"KTI12 (peptide sequence: YELYCLAR, peptide start residue: 89) (UniProt Q96EK9)",0.356
4,"DCUN1D1 (peptide sequence: TAVSCLSQNDWK, peptide start residue: 25) (UniProt Q96GG9)",-0.107
5,"UniProt Q96BD8 (peptide sequence: EFTTLKADKK, peptide start residue: 218)",1.1
6,"VPS33A (peptide sequence: DKNFNAVGSVLSKK, peptide start residue: 301) (UniProt Q96AX1)",-0.119
7,"UniProt Q96A57 (peptide sequence: TNLATGIPSSK, peptide start residue: 6)",-0.0374
8,"NABP1 (peptide sequence: EHQFSHAGR, peptide start residue: 160) (UniProt Q96AH0)",0.0245
9,"CCDC124 (peptide sequence: TIEDAIAVLSVAEEAADR, peptide start residue: 146) (UniProt Q96CT7)",0.2
10,"INPP5D (peptide sequence: FTHLFWFGDLNYR, peptide start residue: 599) (UniProt Q92835)",0.13
11,"UniProt Q96G04 (peptide sequence: CFLSELIK, peptide start residue: 72)",0.219
12,"CUL5 (peptide sequence: MREEENEGIVQLR, peptide start residue: 699) (UniProt Q93034)",-0.348
13,"WDR89 (peptide sequence: MEKIEEQFANLHIVK, peptide start residue: 1) (UniProt Q96FK6)",0.191
14,"MTMR8 (peptide sequence: QSMLESLLEIKK, peptide start residue: 511) (UniProt Q96EF0)",0.53
15,"UniProt Q96FV0 (peptide sequence: MFHTLDELQTVR, peptide start residue: 39)",0.209
16,"ARHGEF2 (peptide sequence: EVMKQQDVIYELIQTELHHVR, peptide start residue: 232) (UniProt Q92974)",0.829
17,"UniProt Q96EK7 (peptide sequence: QEDSMCTHAEINQK, peptide start residue: 518)",-0.483
18,"MRPL48 (peptide sequence: TKPTHGIGK, peptide start residue: 50) (UniProt Q96GC5)",0.0654
19,"UniProt Q96CJ1 (peptide sequence: KEQQQQQMWNSAR, peptide start residue: 124)",-0.0989
20,"OSBP2 (peptide sequence: KVTGVVSDSQGK, peptide start residue: 730) (UniProt Q969R2)",0.537
21,"UniProt Q969X6 (peptide sequence: QLLLFQFAHHLELWR, peptide start residue: 345)",0.656
22,"C18orf25 (peptide sequence: SRSESETSTMAAK, peptide start residue: 143) (UniProt Q96B23)",0.343
23,"GFM2 (peptide sequence: CLQREDPSLK, peptide start residue: 511) (UniProt Q969S9)",0.443
24,"UniProt Q96BR5 (peptide sequence: DMDLACK, peptide start residue: 167)",-0.775
25,"ISOC2 (peptide sequence: AAARPSLGR, peptide start residue: 2) (UniProt Q96AB3)",-0.285

# Reformatted with bars between the fields: entries from further up
row | Target | log2 fold change
6 | VPS33A (peptide sequence: DKNFNAVGSVLSKK, peptide start residue: 301) (UniProt Q96AX1) | -0.119
7 | UniProt Q96A57 (peptide sequence: TNLATGIPSSK, peptide start residue: 6) | -0.0374
8 | NABP1 (peptide sequence: EHQFSHAGR, peptide start residue: 160) (UniProt Q96AH0) | 0.0245
9 | CCDC124 (peptide sequence: TIEDAIAVLSVAEEAADR, peptide start residue: 146) (UniProt Q96CT7) | 0.2
10 | INPP5D (peptide sequence: FTHLFWFGDLNYR, peptide start residue: 599) (UniProt Q92835) | 0.13
11 | UniProt Q96G04 (peptide sequence: CFLSELIK, peptide start residue: 72) | 0.219

# Source: the supplement of paper PMC12819154, “High-throughput peptide-centric local stability assay extends protein–ligand identification to membrane proteins, tissues and bacteria” (Nature Structural & Molecular Biology, 2025)
